Results are given in words; binding and its absence hold for the method and conditions named. Binding calls can cover weak binding; strength is not graded here. Tags and fused reporters may be left off the sequences shown.

Amino acid sequences for entries named in this document (tags omitted). A change or cut given only in a name is not applied to a line headed by its entry.
UniProt Q80XI4: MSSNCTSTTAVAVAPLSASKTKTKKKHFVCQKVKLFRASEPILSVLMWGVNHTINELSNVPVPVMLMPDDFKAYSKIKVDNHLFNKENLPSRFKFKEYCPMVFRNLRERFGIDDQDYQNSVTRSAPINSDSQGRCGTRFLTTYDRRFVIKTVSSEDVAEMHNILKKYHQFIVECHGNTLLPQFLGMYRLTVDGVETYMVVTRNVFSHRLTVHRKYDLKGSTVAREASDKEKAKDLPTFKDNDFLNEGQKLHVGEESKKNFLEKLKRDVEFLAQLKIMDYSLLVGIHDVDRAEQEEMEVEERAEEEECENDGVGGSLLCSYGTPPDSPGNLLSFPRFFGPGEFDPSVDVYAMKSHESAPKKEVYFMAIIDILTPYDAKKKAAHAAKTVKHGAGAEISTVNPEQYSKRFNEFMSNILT

This experiment concerns the target GST tagged PIP4k2b fragment Δ1 (N-terminus of PIP4k2b, amino acid 1-126) (mouse) (UniProt Q80XI4). In words: pull-down; in vitro binding: MANF-His mixed with GST-PIP4k2b (or fragment) on glutathione beads in 500 μl NP40 buffer, 4 °C overnight; washed three times; western blotting; both purified. On the technique in general: A western blot detects proteins with antibodies after separation by electrophoresis.

B1: mouse MANF with a C-terminal His tag (MANF-His) (protein, UniProt Q9CXI5 22-179)
chain: LRPGDCEVCISYLGRFYQDLKDRDVTFSPATIEEELIKFCREARGKENRLCYYIGATDDAATKIINEVSKPLAHHIPVEKICEKLKKKDSQICELKYDKQIDLSTVDLKKLRVKELKKILDDWGEMCKGCAEKSDYIRKINELMPKYAPKAASARTDL
On to B1, for which the binding entry is “binds”.

For the origin of these results see PMC5603516.
